Measurements published in patent publication US20230114241A1, “METHODS OF TREATING EPILEPSY USING THE SAME” (Trevena, Inc., priority 2019, published 2023).
The match of structure and compound is tentative.

By UniProt entry, the sequences of proteins in these tests, tags left out.
UniProt P21453, whole entry: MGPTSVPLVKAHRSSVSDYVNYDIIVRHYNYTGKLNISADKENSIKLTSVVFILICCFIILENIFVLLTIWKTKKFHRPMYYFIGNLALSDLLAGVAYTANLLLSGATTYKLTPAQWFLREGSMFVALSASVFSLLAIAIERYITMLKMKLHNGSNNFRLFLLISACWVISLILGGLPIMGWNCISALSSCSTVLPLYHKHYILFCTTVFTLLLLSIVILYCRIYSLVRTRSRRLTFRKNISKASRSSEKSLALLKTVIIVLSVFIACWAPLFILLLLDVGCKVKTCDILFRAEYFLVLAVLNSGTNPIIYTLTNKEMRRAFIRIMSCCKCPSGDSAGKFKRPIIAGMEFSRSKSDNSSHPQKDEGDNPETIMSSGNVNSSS
UniProt P32121, whole entry partner: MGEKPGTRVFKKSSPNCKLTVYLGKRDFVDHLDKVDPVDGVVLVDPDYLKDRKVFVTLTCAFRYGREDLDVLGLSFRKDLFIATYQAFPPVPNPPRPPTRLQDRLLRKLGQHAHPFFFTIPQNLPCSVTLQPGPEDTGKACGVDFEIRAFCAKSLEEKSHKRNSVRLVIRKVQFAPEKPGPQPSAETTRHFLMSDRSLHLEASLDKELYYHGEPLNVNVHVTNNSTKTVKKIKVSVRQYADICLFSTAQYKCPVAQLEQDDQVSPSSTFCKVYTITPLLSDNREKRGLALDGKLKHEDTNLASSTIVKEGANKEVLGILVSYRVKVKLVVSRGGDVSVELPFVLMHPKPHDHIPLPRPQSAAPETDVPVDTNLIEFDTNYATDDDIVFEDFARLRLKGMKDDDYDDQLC

How the values were obtained:
[1] = molecular target: T1, human sphingosine-1-phosphate receptor 1 (S1P1) (Homo sapiens, UniProt P21453); test: β-Arrestin2 recruitment assay (PathHunter), S1P1 CHO-K1 cells; conditions: for hS1P1 B-arrestin2 SPAN: efficacy normalized to maximum efficacy of fingolimod; for hS1P1 B-arrestin2 pEC50: potency
[2] = molecular target: T1, human sphingosine-1-phosphate receptor 1 (S1P1); test: Inhibition of cAMP production (HTRF cAMP HiRange), S1P1 CHO-K1 cells; conditions: for hS1P1 CAMP SPAN: efficacy normalized to maximum efficacy of fingolimod; for hS1P1 CAMP pEC50: potency

hS1P1 B-arrestin2 SPAN [1] | hS1P1 B-arrestin2 pEC50 [1] | hS1P1 CAMP SPAN [2] | hS1P1 CAMP pEC50 [2] | Structure (SMILES)
<75 | <5 | <75 | <6.5 | Cc1ccc(-c2nc(-c3ccc4c(c3)nnn4C(C)C)no2)s1
>75 | >5 | >75 | >6.5 | CCC1(CC)CC(=O)c2cc(-c3nc(-c4ccncc4C)no3)ccc2O1
